Measured values as given in patent US20180362629A1 (ZOETIS BELGIUM S A, published 2018).
Results are given in words; binding and its absence hold for the method and conditions named. Some entries that bind do so weakly or less than the wild type.

B1: PR-1254972 (antibody, mouse IgG2b, V domains shown)
VH: EVHLVESGGGLVKPGGFLILSCAASGFTFSDYYMFWIRQTPGKRLEWVATISDGGSYTYYTDNVKGRFTISRDNVKNNLYLQMSHLKSADTAMYYCARDWSDSEGFAYWGQGTLVTVSA
VL: DVLMTQTPLSLPVSLGDQASISCRSSQSIVQSNGNTYLEWYLQKPGQSPKLLIYKVSNRFSGVPDRFSGSGSGTDFTLKISRVEAEDLGVYYCFQGSHVPFTFGSGTKLEIKR
B2: PR-1254981 (antibody, mouse IgG1, V domains shown)
VH: EVQLVESGGGAVKPGGSLTLSCAASGFTFSNHYMYWVRQTPEKRLEWVASISDGGAYTFYPDTVKGRFTISRDNVNNNLYLQMRHLKSEDTAMYYCTREESANNGFAFWGQGTLVTVSA
VL: DVLMTQTPLSLPVSLGDQASISCRSSQSILHSNGNTYLEWYLQKPGQSPNLLIYRVSNRFSGVPDRFSGSGSGTDFTLKISRVEAEDLGVYYCFQGAHVPFTFGSGTKLEIKR
B3: PR-1254982 (antibody, mouse IgG1, V domains shown)
VH: QVQLKESGPGLVAPSQSLSITCTVSGFSLTGYNINWVRQPPGKGLEWLGMIWGYGDTDYNSALKSRLSISKDNSKSQVFLKMNSLQTDDTARYYCARDHYGGNDWYFDVWGTGTTVTVSS
VL: DIQMTQTTSSLSASLGDRVTITCRASQDITNYLNWYQQKPDGTVKLLIYYTSRLHSGVPSRFSGSGSGTDYSLTISNLDQEDIATYFCQQGKTLPRTFGGGTKLEIKR

The binders below were run against recombinant canine β NGF (canine) (assay: SPR (Biacore), mAb captured on anti-mouse IgG Fc).

binding, binds:
B1
B2
B3
